# PubChem BioAssay AID652272, Drosophila RNAi Screening Center – 2013
# Purpose: 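Genome-wide knock-down search for components of Hedgehog signalling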 (primary screen)
# System: Drosophila clone 8 (Cl8) cells
# Reagent: long dsRNA against Drosophila genes
# Measured: 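Plate reader light from a firefly reporter under a ptc promoter fragment that responds to Hedgehog, with Renilla light as transfection reference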
# Reading the numbers: firefly Hh reporter signal: higher = more ptc reporter light; Renilla reference signal: higher = more Renilla control light
# Hit rule: 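Called a hit if the two-replicate mean z-score lies below -2 or above +3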
# Meaning of the calls: active = hit: reporter lowered or raised; inactive = not a hit
# The deposit covers about 21,000 reagents; this is an unselected part of those that have a named target and a result. In the full data, 503 (2.4%) were called active. 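Raw plate light values, not normalised; calls rest on replicate z-scores that were not deposited; hits include reporter decreases as well as increases.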 The numbers tell different reagents against one gene apart. A plus sign joins genes that one reagent is predicted to hit. Not stated in the record: the amount of reagent, the time to read-out.
gene,reagent no.,"firefly Hh reporter signal, replicate 1","firefly Hh reporter signal, replicate 2","firefly Hh reporter signal, replicate 3","Renilla reference signal, replicate 1","Renilla reference signal, replicate 2",Outcome
Acsx1L (Acyl-CoA synthetase X1 L),1,5.63e5,87911,,27891,2790,inactive
Grip (Glutamate receptor interacting protein),1,28253,28340,,1008,1625,inactive
Grip (Glutamate receptor interacting protein),2,57666,1.50e5,,2240,6023,inactive
Eip63F-1 (Ecdysone-induced protein 63F 1),1,1.17e5,2.72e5,,9499,10695,inactive
Eip63F-1 (Ecdysone-induced protein 63F 1),2,1.29e5,87069,,3240,5632,inactive
CG45105,1,35436,39653,,1232,1385,inactive
CG45105,2,48928,38051,,2086,1101,inactive
CG32069 + Blos2,1,90240,74358,,4090,3056,inactive
mim (missing-in-metastasis),1,28160,10948,,912,1386,active
CG5399,1,77478,93586,,3328,2811,inactive
nop5,1,1.22e5,38672,,3412,4854,inactive
TwdlE (TweedleE),1,1.04e5,55283,,2938,5232,inactive
GstD4 (Glutathione S transferase D4),1,1.44e5,1.30e5,,5405,3619,inactive

Ordered by “Renilla reference signal, replicate 1” (highest first): some entries from above.
gene,reagent no.,"firefly Hh reporter signal, replicate 1","firefly Hh reporter signal, replicate 2","firefly Hh reporter signal, replicate 3","Renilla reference signal, replicate 1","Renilla reference signal, replicate 2",Outcome
nop5,1,1.22e5,38672,,3412,4854,inactive
TwdlE (TweedleE),1,1.04e5,55283,,2938,5232,inactive

The list goes on.
gene,reagent no.,"firefly Hh reporter signal, replicate 1","firefly Hh reporter signal, replicate 2","firefly Hh reporter signal, replicate 3","Renilla reference signal, replicate 1","Renilla reference signal, replicate 2",Outcome
CG7049,1,1.21e5,66754,,5175,2813,inactive
CG4704,1,6.63e5,96723,,30326,2490,inactive
PCNA (Proliferating cell nuclear antigen),1,1.17e5,66104,,5447,2765,inactive
CG3713,1,81469,1.60e5,,2145,5976,inactive
CG5087,1,41923,50000,,4055,4011,inactive
CG14147,1,34289,31324,59041,3744,4480,inactive
Ilp6 (Insulin-like peptide 6),1,74365,2.50e5,,2128,9344,inactive
Syx4 (Syntaxin 4),1,69837,2.12e5,,1904,9063,inactive
CG7668,1,1.50e5,74576,,5813,3080,inactive
tkv (thickveins),1,7.10e5,2.78e5,,30041,13312,inactive
tkv (thickveins),2,59610,66440,,2508,2365,inactive
